Laboratory results: PubChem BioAssay AID652272 (Drosophila RNAi Screening Center, 2013)
Aim: 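Genome-wide knock-down search for components of Hedgehog signalling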 (primary screen). Cell system: Drosophila clone 8 (Cl8) cells. Knock-down reagent: long dsRNA against Drosophila genes. Read-out: 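Firefly light from a Hedgehog-responsive ptc promoter reporter and Renilla reference light, both read on a plate reader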. Direction: firefly Hh reporter signal: higher = more ptc reporter light; Renilla reference signal: higher = more Renilla control light. Call rule: 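Called a hit if the two-replicate mean z-score lies below -2 or above +3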. Meaning of the calls: active = hit: reporter lowered or raised; inactive = not a hit.
In all, the deposit lists about 21,000 reagents; below is a random part of those with a known target gene and a result. Of all reagents, 503 (2.4%) are marked active. 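Raw plate light values, not normalised; calls rest on replicate z-scores that were not deposited; hits include reporter decreases as well as increases.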 Names joined by + are all predicted targets of the reagent. No sequences are given here. The record does not give: the amount of reagent, the time to read-out.

| Target gene | dsRNA | firefly Hh reporter signal, replicate 1 | firefly Hh reporter signal, replicate 2 | firefly Hh reporter signal, replicate 3 | Renilla reference signal, replicate 1 | Renilla reference signal, replicate 2 | outcome |
| --- | --- | --- | --- | --- | --- | --- | --- |
| CAH7 | DRSC15524 | 55832 | 80861 | – | 2107 | 2112 | inactive |
| Tsp3A | DRSC18656 | 73053 | 1.87e5 | – | 1913 | 6624 | inactive |
| Rtnl1 | DRSC00851 | 5.97e5 | 2.55e5 | – | 28036 | 10150 | inactive |
| Rtnl1 | DRSC02684 | 1.71e5 | 1.28e5 | – | 6727 | 5514 | inactive |
| Rtnl1 | DRSC03122 | 71570 | 53457 | – | 3953 | 2139 | inactive |
| BomT2 | DRSC06631 | 1.02e5 | 77610 | – | 2508 | 5085 | inactive |
| Rad51D | DRSC06840 | 89517 | 52620 | – | 2024 | 4711 | inactive |
| stet | DRSC08246 | 60503 | 44565 | – | 2140 | 3408 | inactive |
| stet | DRSC08283 | 63632 | 38163 | – | 2429 | 3334 | inactive |
| CG15296 | DRSC17983 | 56428 | 1.51e5 | – | 1433 | 6092 | inactive |
| Yp2 | DRSC18732 | 80856 | 75920 | – | 1938 | 1586 | inactive |
| nAChRbeta2 | DRSC17010 | 1.31e5 | 89253 | – | 4874 | 3088 | inactive |
| CG14984 | DRSC08442 | 78427 | 34736 | – | 1895 | 3040 | inactive |
| Pdi | DRSC11250 | 77401 | – | – | 4724 | 2616 | inactive |
| CG33639 | DRSC19966 | 1.28e5 | 8.77e5 | 3.54e5 | 3529 | 6250 | inactive |
| tadr | DRSC03177 | 62160 | 69827 | – | 2472 | 2890 | inactive |
| CG32793 | DRSC18145 | 1.17e5 | 3.73e5 | – | 4615 | 12873 | inactive |
| CG32793 | DRSC18194 | 95650 | 1.59e5 | – | 3898 | 5353 | inactive |
| CG2794 | DRSC00534 | 1.09e5 | 1.11e5 | – | 2534 | 2585 | inactive |
| WDR79 | DRSC03159 | 73936 | 80080 | – | 2912 | 2964 | inactive |
| CG17786 | DRSC15270 | 5.25e5 | 77484 | – | 27373 | 2512 | inactive |
| Reg-5 | DRSC04647 | 91901 | 53091 | – | 3672 | 1495 | inactive |
| CG11694 | DRSC14354 | 75108 | 91560 | – | 1449 | 3043 | inactive |
| Syn2 | DRSC06902 | 77016 | 59707 | – | 2299 | 4534 | inactive |
| bin | DRSC10332 | 36535 | 48066 | – | 5632 | 3617 | inactive |
| Arpc2 | DRSC02113 | 1.19e5 | 96347 | – | 4970 | 3370 | inactive |
| Cchl | DRSC15949 | 1.11e5 | 93078 | – | 4344 | 3325 | inactive |
| Fbp1 | DRSC11166 | 76496 | – | – | 2573 | 2113 | inactive |
| CG7352 | DRSC16233 | 90550 | 1.64e5 | – | 3430 | 4880 | inactive |
| Gar1 | DRSC04441 | 1.26e5 | 46461 | – | 3069 | 3766 | inactive |
| ND-PDSW | DRSC00715 | 83104 | 57766 | – | 4370 | 2860 | inactive |
| sqa | DRSC06693 | 46620 | 53476 | – | 2177 | 2219 | inactive |
| Eglp3 | DRSC04293 | 65728 | 46832 | – | 1504 | 4139 | inactive |
| CG2955 | DRSC00552 | 62656 | 80678 | – | 3047 | 3285 | inactive |
| CG5281 | DRSC15761 | 66219 | 1.18e5 | – | 1981 | 2544 | inactive |
| Tdrd3 | DRSC10016 | 90576 | – | – | 2193 | 2934 | inactive |
| CG14298 | DRSC14777 | 4.97e5 | 1.13e5 | – | 24403 | 3156 | inactive |
| PPYR1 | DRSC19612 | 1.21e5 | 2.39e5 | – | 4224 | 10115 | inactive |
| CG9016 | DRSC03127 | 74163 | 60759 | – | 2475 | 6337 | inactive |
| achi | DRSC07276 | 79172 | 45224 | – | 2077 | 3776 | inactive |
| Cdk7 | DRSC18451 | 68016 | 1.81e5 | – | 1629 | 5910 | inactive |
| Osi23 | DRSC15074 | 1.20e5 | 1.04e5 | – | 4531 | 3017 | inactive |
| PpD3 | DRSC16796 | 62984 | 1.38e5 | – | 1181 | 2816 | inactive |
| BicD | DRSC02006 | 71600 | 54871 | – | 2937 | 1994 | inactive |
| CG13924 | DRSC08393 | 69802 | 44836 | – | 2120 | 3475 | inactive |
| CG31897 | DRSC01020 | 4.85e5 | 1.67e5 | – | 23853 | 7233 | inactive |
| Sin3A | DRSC07552 | 57314 | 26992 | – | 2823 | 1377 | inactive |
| tkv + CR14033 + tRNA:Asp-GTC-2-1 + 1 more | DRSC00861 | 8.04e5 | 8.58e5 | 3.09e5 | 40333 | 5805 | inactive |
| Ms | DRSC16041 | 1.45e5 | 97660 | – | 5773 | 3953 | inactive |
| CG14969 | DRSC08428 | 1.29e5 | 1.20e5 | – | 4852 | 4488 | inactive |
| tinc | DRSC14798 | 4.65e5 | 87121 | – | 26684 | 2208 | inactive |
| tinc | DRSC14799 | 4.63e5 | 89196 | – | 25640 | 2317 | inactive |
| tinc | DRSC16308 | 3.81e5 | 71901 | – | 20938 | 2090 | inactive |
| tinc | DRSC16309 | 5.14e5 | 87782 | – | 33435 | 1872 | inactive |
| Tdc2 | DRSC04999 | 98137 | 67061 | – | 2545 | 3347 | inactive |
| Atg1 | DRSC09809 | 82403 | 61399 | – | 3329 | 2572 | inactive |
| Atg1 | DRSC09810 | 65308 | 71616 | 49805 | 8224 | 4173 | inactive |

A few values from the list.
Entry of CG9016 [DRSC03127] under “Renilla reference signal, replicate 1”: 2475
Under “firefly Hh reporter signal, replicate 2”, Eglp3 [DRSC04293] is entered as 46832
Rtnl1 [DRSC00851], Renilla reference signal, replicate 2: 10150
CG33639 [DRSC19966], Renilla reference signal, replicate 2 = 6250
BicD [DRSC02006], Renilla reference signal, replicate 1: 2937
Gar1 [DRSC04441], Renilla reference signal, replicate 1 → 3069
